# US20220315648A1
# Protein sequences, listed by entry. Tags and fused reporters are not part of them. Lines headed by an entry give the natural chain unless they say otherwise; changes in a name come on top.
# UniProt Q13148: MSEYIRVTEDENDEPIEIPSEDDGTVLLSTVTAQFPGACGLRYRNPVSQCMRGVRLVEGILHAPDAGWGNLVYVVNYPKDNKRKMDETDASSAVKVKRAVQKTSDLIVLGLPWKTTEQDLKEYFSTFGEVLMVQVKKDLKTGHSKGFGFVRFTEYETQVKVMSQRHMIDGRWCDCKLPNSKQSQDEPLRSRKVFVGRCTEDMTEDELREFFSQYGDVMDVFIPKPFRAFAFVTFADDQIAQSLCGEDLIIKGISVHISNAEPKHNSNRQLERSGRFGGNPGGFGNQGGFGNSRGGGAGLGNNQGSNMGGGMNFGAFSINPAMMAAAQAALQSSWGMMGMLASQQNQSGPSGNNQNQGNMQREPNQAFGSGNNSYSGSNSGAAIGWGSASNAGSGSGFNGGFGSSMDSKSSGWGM
# No constants are given. Whether binding was seen depends on the method and setting. Some results given as binding are weak or reduced against the parent protein; the word gives no strength.
# B1: ACI-7069-646B7-Ab1 (antibody, IgG2b, V domains shown)
# VH: QVQLKESGPGLVAPSQSLSITCTVSGFSLTNFGVHWVRQPPGKGLEWLGIMWAGGSTNYNSALMSRLSISKDNSKSQVFLKMNSLQTDDTAMYYCVIYKTGFAYWGQGTLVTVSA
# VL: DVLMTQTPLSLPVSLGDQASISCRSSQSIVHAIGNTYLEWYLQKPGQSPKLLIYKVSNRFSGVPDRFSGSGSGTDFTLKISRVEAEDLGVYYCFQGSHVPFTFGSGTKLEIK
# B2: ACI-7071-809D9-Ab2 (antibody, IgG2b, V domains shown)
# VH: QVQLQQSGAELVRPGVSVKISCKGSGYKFTDYSMHWVKQSHTKSLEWIGVISTYYGDTTYNQKFKGKATITVDKSSSTAYMELARLTSEDSAIYYCATYGNFPASFSYWGQGTLVTVSA
# VL: DIVMTQAAPSIPVTPGESVSISCRSSKSLLHSNGNTYLYWFLQRPGQSPQLLIYRMSNLASGVPDRFSGSGSGTAFTLRISRVEAEDVGVYYCMQHLEYPFTFGSGTKLEIK
# B3: ACI-7071-809F12-Ab1 (antibody, IgG2b, V domains shown)
# VH: QVQLKESGPGLVAPSQSLSITCTVSGFSLNRNGVQWVRQPPGKGLEWLGVIWPGGSTNCNSALMSRLSISKDNSKSQVFLKMNSLHTDDTGIYYCARVGGNYVWDYNNYAWGQGTLVTVSA
# VL: DVLMTQTPLSLPVSLGDQASISCRSSQNIVHSIGNTYLEWYLQKPGQSPKLLIYKVSNRFSGVPDRFSGSGSGTDFTLKISRVEAEDLGVYYCFQGSHVPYTFGGGTKLEIR
# B4: ACI-7069-641H1-Ab2 (antibody, IgG2b, V domains shown)
# VH: QVQLKESGPGLVAPSQSLSITCTVSGFSLTNYGVHWVRQPPGKGLEWLGLMWAGGSTNYNSALMSRLSISKDNSKSQVFLKMNSLQTDDTAMYYCVIYRTGFAYWGQGTLVTVSA
# VL: DVLMTQTPLSLPVSLGDQASISCRSSQSIVHTIGNTYLEWYLQKPGQSPKLLIYKVSNRFSGVPDRFSGSGSGTDFTLKISRVEAEDLGVYYCFQGSHVPFTFGSGTKLEIK
# Key:
# [1] = biological target: aggregated TDP-43 in brain tissue from FTD subjects (human) (UniProt Q13148); assay: IHC on frozen FTD brain sections
# [2] = biological target: aggregated TDP-43 in brain tissue from FTD subjects (human) (UniProt Q13148); assay: immunofluorescence on 10 µm frozen sections of FTD type A frontal cortex, fluorescent secondary antibody, DAPI for nuclei
binder,measurement,setting,value
B1,binding,[1],binds
same,binding,[2],binds
B2,binding,[1],binds
same,binding,[2],binds
B3,binding,[1],binds
same,binding,[2],binds
B4,binding,[1],binds
same,binding,[2],binds
